# Laboratory results: the supplement of paper PMC8728848
# Some of the results follow.
# B1: PX14404-bvu-534-26-534 (Bacteroides vulgatus) (protein)
# chain: EDPRGKLTPENFFSTQDELNMSIYALYQKVNLSQVYTNMQLPQWQGDDITTNPGSNKQPAAEMDKFAAANNNKGVKDAWNMHYAIVKAANLIIQGASKTPTTQDEINIALGQAKFWRAYAYFTLVRLWGPLPMNLDNVNDDYTKPLSPVEEVYGHIVQDLTEAEAVLPTGYSGSPRFLNGVNVYVTRQAAKSTLAAVYMAMAGWPMNKTEYYAKAAEKAKEVIEGVNRGEYEYKLDKDYKDVYAMSNNYNNETVLGINYSPFVDWAQDSELTSCNQFESLGGWGDAWGEIRFWKEFPDGPRKDATYDPKIRLKDGTLVDWWELKEDGTPVVPEHHPMFSIFSVNWDPASKVNTSAPYDYTKPASQNMCNDHRHRIIRYSEVLLWYAEAKARTGQTDELAFKCLNDVRERAGLEPLTGLSADDLAEAAYKEHGWEVAGYWVALVTRRADQFRMNRLKDTFKERAENTAVEVADGILVKESVEYTNRTWSDNLMYLPYPDMDSQKNPNLVR
# Tests used:
# Assay in all cases: glycan array binding signal (z-score within array); higher = stronger binding
# Settings in all cases: glycan notation: IUPAC condensed, linker removed
# [1] = biological target: Gal(b1-4)GlcNAc(b1-2)Man(a1-3)[Gal(b1-4)GlcNAc(b1-2)Man(a1-6)]Man(b1-4)GlcNAc(b1-4)[Fuc(a1-6)]GlcNAc
# How it was run: (§1)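 From the Consortium for Functional Glycomics database, 3228 arrays were curated, keeping only those whose protein sequence was available. Binding is given as a within-array Z-score averaged across arrays sharing a protein sequence and across linkers. Negative Z-scores can be read as non-binding.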
# [2] = biological target: Gal(b1-4)GlcNAc(b1-2)Man(a1-3)[Gal(b1-4)GlcNAc(b1-2)Man(a1-6)][Gal(b1-4)GlcNAc(b1-4)]Man(b1-4)GlcNAc(b1-4)[Fuc(a1-6)]GlcNAc
# How it was run: as §1
# [3] = biological target: Gal(b1-4)GlcNAc(b1-2)Man(a1-3)[Gal(b1-4)GlcNAc(b1-2)Man(a1-6)][GlcNAc(b1-4)]Man(b1-4)GlcNAc(b1-4)[Fuc(a1-6)]GlcNAc
# How it was run: as §1
# [4] = biological target: Gal(b1-4)GlcNAc(b1-2)Man(a1-3)[GlcNAc(b1-2)Man(a1-6)]Man(b1-4)GlcNAc(b1-4)GlcNAc
# How it was run: as §1
# [5] = biological target: Gal(b1-4)GlcNAc(b1-2)Man(a1-3)[GlcNAc(b1-4)][Gal(b1-4)GlcNAc(b1-2)Man(a1-6)]Man(b1-4)GlcNAc(b1-4)GlcNAc
# How it was run: as §1
# [6] = biological target: Gal(b1-4)GlcNAc(b1-2)Man(a1-3)[Man(a1-6)]Man(b1-4)GlcNAc(b1-4)GlcNAc
# How it was run: as §1
# [7] = biological target: Gal(b1-4)GlcNAc(b1-2)Man(a1-6)Man(b1-4)GlcNAc(b1-4)GlcNAc
# How it was run: as §1
# [8] = biological target: Gal(b1-4)GlcNAc(b1-2)Man(a1-6)[GlcNAc(b1-2)Man(a1-3)]Man(b1-4)GlcNAc(b1-4)GlcNAc
# How it was run: as §1
# [9] = biological target: Gal(b1-4)GlcNAc(b1-2)Man(a1-6)[Man(a1-3)]Man(b1-4)GlcNAc(b1-4)GlcNAc
# How it was run: as §1
# [10] = biological target: Gal(b1-4)GlcNAc(b1-2)[Gal(b1-4)GlcNAc(b1-4)]Man(a1-3)[Gal(b1-4)GlcNAc(b1-2)Man(a1-6)]Man(b1-4)GlcNAc(b1-4)GlcNAc
# How it was run: as §1
# [11] = biological target: Gal(b1-4)GlcNAc(b1-2)[Gal(b1-4)GlcNAc(b1-4)]Man(a1-3)[Gal(b1-4)GlcNAc(b1-2)[Gal(b1-4)GlcNAc(b1-6)]Man(a1-6)]Man(b1-4)GlcNAc(b1-4)GlcNAc
# How it was run: as §1
# [12] = biological target: Gal(b1-4)GlcNAc(b1-2)[Gal(b1-4)GlcNAc(b1-4)]Man(a1-3)[GlcNAc(b1-4)][Gal(b1-4)GlcNAc(b1-2)Man(a1-6)]Man(b1-4)GlcNAc(b1-4)GlcNAc
# How it was run: as §1
# [13] = biological target: Gal(b1-4)GlcNAc(b1-2)[Gal(b1-4)GlcNAc(b1-4)]Man(a1-3)[GlcNAc(b1-4)][Gal(b1-4)GlcNAc(b1-2)[Gal(b1-4)GlcNAc(b1-6)]Man(a1-6)]Man(b1-4)GlcNAc(b1-4)GlcNAc
# How it was run: as §1
# [14] = biological target: Gal(b1-4)GlcNAc(b1-2)[Gal(b1-4)GlcNAc(b1-6)]Man(a1-6)[Gal(b1-4)GlcNAc(b1-2)Man(a1-3)]Man(b1-4)GlcNAc(b1-4)GlcNAc
# How it was run: as §1
# [15] = biological target: Gal(b1-4)GlcNAc(b1-2)[Gal(b1-4)GlcNAc(b1-6)]Man(a1-6)[Gal(b1-4)GlcNAc(b1-2)Man(a1-3)]Man(b1-4)GlcNAc(b1-4)[Fuc(a1-6)]GlcNAc
# How it was run: as §1
# [16] = biological target: Gal(b1-4)GlcNAc(b1-2)[Gal(b1-4)GlcNAc(b1-6)]Man(a1-6)[GlcNAc(b1-4)][Gal(b1-4)GlcNAc(b1-2)Man(a1-3)]Man(b1-4)GlcNAc(b1-4)GlcNAc
# How it was run: as §1
# [17] = biological target: Gal(b1-4)GlcNAc(b1-2)[Gal(b1-4)GlcNAc(b1-6)]Man(a1-6)[GlcNAc(b1-4)][Gal(b1-4)GlcNAc(b1-2)[Gal(b1-4)GlcNAc(b1-4)]Man(a1-3)]Man(b1-4)GlcNAc(b1-4)[Fuc(a1-6)]GlcNAc
# How it was run: as §1
# [18] = biological target: Gal(b1-4)GlcNAc(b1-3)Gal(b1-3)GalNAc
# How it was run: as §1
# [19] = biological target: Gal(b1-4)GlcNAc(b1-3)Gal(b1-3)GlcNAc
# How it was run: as §1
binder,measurement,setting,value
B1,glycan array binding signal (z-score),[1],0.589
same,glycan array binding signal (z-score),[2],-1.6
same,glycan array binding signal (z-score),[3],-0.69
same,glycan array binding signal (z-score),[4],-0.124
same,glycan array binding signal (z-score),[5],-1.44
same,glycan array binding signal (z-score),[6],1.36
same,glycan array binding signal (z-score),[7],-0.242
same,glycan array binding signal (z-score),[8],-1.25
same,glycan array binding signal (z-score),[9],-0.492
same,glycan array binding signal (z-score),[10],-0.23
same,glycan array binding signal (z-score),[11],-0.575
same,glycan array binding signal (z-score),[12],0.657
same,glycan array binding signal (z-score),[13],0.259
same,glycan array binding signal (z-score),[14],-0.038
same,glycan array binding signal (z-score),[15],-0.583
same,glycan array binding signal (z-score),[16],-0.45
same,glycan array binding signal (z-score),[17],-1.15
same,glycan array binding signal (z-score),[18],-0.847
same,glycan array binding signal (z-score),[19],-0.873

# Reprinted at random: two entries already listed
binder,measurement,setting,value
B1,glycan array binding signal (z-score),[5],-1.44
same,glycan array binding signal (z-score),[14],-0.038
